From the supplement of paper PMC6411743
± gives the standard deviation of the averaged measurements. The entries are a selection whose mix differs from that of the whole data set. Most values lie at the level of the controls, where differences are scatter.

Chains of the proteins cited; added tags and fusions are not shown. Lines headed by an entry give the natural chain unless they say otherwise; changes in a name come on top.
UniProt Q96AB3: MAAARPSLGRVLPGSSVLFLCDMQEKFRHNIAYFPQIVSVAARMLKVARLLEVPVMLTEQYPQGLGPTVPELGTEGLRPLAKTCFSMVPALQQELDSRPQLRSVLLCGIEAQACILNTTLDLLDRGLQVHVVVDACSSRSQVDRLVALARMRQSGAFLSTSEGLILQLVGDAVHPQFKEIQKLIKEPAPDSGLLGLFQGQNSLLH
UniProt Q9BW66: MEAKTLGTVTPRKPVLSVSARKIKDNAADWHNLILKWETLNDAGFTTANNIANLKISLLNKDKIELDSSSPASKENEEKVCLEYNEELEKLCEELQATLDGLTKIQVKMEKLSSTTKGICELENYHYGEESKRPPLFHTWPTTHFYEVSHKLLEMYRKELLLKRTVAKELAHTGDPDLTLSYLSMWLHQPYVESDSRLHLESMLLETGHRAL
UniProt Q99081: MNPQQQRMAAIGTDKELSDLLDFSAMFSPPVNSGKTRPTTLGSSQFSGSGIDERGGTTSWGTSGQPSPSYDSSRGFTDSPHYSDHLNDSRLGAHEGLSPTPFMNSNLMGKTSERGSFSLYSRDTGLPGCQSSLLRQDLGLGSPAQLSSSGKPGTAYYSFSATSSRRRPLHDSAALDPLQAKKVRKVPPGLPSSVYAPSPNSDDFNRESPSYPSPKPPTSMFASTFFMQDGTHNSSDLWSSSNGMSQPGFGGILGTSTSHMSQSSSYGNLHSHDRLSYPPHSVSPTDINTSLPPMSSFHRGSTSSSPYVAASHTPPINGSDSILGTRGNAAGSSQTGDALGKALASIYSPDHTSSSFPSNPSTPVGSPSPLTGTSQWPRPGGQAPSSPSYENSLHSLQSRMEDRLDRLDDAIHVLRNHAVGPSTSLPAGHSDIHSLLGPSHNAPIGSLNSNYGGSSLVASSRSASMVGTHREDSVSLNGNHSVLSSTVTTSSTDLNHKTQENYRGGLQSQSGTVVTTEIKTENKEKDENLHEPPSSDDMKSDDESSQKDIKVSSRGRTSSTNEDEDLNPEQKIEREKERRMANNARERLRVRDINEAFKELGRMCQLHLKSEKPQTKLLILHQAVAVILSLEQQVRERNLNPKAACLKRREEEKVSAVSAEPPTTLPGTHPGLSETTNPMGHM
UniProt P01130: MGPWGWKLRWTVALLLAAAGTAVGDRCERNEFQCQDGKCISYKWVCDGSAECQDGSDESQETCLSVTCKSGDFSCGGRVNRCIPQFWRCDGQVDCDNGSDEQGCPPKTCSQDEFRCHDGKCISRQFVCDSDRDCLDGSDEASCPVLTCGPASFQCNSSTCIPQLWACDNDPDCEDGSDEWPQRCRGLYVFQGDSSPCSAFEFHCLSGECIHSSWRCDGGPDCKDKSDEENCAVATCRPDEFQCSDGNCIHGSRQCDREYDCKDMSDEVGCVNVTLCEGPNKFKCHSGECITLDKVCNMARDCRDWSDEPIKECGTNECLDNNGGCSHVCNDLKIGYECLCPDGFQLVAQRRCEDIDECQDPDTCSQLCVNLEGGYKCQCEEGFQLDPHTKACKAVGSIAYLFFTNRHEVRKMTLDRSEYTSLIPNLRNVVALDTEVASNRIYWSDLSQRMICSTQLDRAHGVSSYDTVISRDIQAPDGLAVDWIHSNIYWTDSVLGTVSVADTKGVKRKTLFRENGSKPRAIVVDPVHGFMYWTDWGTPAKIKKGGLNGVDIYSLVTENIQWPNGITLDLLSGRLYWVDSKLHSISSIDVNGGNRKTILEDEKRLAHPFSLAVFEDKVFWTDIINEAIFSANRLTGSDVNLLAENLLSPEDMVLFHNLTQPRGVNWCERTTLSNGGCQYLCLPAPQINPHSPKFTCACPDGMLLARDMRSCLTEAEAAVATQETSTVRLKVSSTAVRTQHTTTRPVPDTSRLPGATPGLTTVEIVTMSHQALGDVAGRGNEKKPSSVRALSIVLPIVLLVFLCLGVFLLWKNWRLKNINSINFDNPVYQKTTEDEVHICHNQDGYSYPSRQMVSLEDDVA
UniProt P78549: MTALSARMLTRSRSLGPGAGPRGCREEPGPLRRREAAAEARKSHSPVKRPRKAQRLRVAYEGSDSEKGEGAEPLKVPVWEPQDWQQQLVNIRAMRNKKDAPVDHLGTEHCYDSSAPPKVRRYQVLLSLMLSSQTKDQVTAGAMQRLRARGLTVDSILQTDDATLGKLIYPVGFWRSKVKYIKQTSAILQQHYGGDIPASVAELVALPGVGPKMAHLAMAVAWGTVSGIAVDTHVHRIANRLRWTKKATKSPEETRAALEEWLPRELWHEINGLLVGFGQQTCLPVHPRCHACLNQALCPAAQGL
UniProt Q96FV2: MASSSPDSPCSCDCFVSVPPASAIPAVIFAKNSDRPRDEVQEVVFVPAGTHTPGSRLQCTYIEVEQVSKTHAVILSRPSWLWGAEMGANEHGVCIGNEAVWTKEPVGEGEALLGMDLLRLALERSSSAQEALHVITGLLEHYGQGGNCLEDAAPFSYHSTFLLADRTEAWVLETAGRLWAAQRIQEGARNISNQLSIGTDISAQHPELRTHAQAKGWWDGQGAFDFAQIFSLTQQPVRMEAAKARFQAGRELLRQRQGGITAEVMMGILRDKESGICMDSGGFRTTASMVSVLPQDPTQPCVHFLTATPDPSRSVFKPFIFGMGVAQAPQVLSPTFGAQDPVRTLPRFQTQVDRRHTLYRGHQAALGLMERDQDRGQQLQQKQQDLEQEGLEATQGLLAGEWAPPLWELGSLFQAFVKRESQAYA
UniProt Q96EV2: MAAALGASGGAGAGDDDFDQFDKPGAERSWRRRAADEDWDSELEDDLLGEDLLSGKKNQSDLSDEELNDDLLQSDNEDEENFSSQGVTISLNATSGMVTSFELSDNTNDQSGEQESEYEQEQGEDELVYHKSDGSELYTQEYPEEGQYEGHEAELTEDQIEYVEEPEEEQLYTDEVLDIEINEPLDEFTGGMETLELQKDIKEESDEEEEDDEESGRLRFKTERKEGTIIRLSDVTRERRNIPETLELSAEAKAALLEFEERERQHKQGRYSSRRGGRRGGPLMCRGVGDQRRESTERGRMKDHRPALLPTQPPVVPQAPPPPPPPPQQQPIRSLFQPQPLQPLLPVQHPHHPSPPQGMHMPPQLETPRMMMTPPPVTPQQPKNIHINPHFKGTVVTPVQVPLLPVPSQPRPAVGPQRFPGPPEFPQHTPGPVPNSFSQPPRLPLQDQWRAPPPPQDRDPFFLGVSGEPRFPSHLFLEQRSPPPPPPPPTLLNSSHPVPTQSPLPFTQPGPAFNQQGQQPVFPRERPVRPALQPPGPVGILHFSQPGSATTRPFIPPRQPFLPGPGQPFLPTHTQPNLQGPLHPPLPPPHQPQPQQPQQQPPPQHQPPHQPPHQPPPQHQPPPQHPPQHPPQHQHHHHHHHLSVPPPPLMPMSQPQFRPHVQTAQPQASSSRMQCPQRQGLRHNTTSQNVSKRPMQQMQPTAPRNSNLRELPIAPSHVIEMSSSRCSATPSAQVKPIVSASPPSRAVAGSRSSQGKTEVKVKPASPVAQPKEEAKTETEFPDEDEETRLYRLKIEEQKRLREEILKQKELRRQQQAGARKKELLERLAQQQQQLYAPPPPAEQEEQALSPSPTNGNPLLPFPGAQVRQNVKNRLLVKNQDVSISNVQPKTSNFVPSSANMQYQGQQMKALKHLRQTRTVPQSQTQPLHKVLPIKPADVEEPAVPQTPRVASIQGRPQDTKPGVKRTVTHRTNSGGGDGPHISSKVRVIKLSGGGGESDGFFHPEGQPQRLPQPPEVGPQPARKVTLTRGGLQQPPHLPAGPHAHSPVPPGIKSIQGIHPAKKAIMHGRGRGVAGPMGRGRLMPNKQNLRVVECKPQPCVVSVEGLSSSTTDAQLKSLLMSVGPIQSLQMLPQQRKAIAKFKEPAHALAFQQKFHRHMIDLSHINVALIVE
UniProt P78537: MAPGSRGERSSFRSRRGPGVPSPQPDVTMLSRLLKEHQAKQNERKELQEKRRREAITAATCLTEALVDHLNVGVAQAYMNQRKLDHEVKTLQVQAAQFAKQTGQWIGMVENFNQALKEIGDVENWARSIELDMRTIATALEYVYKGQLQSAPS
UniProt Q49A26: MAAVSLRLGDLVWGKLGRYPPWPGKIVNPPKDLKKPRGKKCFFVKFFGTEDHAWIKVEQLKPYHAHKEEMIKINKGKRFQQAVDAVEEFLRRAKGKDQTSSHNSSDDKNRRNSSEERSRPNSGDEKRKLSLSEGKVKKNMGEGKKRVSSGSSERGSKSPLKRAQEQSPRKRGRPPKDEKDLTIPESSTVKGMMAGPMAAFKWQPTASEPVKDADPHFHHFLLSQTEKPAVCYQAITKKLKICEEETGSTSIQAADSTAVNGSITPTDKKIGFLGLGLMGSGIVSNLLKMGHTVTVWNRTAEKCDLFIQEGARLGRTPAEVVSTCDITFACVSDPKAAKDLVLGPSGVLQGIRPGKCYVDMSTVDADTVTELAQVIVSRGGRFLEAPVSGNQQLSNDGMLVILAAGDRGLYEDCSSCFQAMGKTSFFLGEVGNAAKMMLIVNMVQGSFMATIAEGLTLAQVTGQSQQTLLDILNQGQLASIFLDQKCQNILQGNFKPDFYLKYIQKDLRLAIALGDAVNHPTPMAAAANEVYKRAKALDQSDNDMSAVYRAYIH
UniProt Q9Y592: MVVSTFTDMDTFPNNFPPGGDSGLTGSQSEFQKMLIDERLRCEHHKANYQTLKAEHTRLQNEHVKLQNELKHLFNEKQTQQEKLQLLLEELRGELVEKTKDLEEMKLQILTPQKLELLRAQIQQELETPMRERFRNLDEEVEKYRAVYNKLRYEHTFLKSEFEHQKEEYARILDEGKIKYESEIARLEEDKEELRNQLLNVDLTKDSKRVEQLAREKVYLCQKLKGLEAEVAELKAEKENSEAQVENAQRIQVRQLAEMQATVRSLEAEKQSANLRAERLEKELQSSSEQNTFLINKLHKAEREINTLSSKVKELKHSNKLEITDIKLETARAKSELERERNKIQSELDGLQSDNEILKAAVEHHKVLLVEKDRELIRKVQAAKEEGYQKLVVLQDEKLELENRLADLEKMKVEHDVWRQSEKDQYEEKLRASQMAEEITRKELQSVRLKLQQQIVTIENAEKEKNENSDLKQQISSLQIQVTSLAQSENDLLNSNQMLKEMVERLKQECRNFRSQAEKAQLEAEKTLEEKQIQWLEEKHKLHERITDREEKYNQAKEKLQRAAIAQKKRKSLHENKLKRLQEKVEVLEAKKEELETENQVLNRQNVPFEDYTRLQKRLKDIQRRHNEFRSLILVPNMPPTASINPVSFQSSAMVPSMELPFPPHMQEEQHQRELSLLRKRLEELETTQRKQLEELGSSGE
UniProt Q9H2U1: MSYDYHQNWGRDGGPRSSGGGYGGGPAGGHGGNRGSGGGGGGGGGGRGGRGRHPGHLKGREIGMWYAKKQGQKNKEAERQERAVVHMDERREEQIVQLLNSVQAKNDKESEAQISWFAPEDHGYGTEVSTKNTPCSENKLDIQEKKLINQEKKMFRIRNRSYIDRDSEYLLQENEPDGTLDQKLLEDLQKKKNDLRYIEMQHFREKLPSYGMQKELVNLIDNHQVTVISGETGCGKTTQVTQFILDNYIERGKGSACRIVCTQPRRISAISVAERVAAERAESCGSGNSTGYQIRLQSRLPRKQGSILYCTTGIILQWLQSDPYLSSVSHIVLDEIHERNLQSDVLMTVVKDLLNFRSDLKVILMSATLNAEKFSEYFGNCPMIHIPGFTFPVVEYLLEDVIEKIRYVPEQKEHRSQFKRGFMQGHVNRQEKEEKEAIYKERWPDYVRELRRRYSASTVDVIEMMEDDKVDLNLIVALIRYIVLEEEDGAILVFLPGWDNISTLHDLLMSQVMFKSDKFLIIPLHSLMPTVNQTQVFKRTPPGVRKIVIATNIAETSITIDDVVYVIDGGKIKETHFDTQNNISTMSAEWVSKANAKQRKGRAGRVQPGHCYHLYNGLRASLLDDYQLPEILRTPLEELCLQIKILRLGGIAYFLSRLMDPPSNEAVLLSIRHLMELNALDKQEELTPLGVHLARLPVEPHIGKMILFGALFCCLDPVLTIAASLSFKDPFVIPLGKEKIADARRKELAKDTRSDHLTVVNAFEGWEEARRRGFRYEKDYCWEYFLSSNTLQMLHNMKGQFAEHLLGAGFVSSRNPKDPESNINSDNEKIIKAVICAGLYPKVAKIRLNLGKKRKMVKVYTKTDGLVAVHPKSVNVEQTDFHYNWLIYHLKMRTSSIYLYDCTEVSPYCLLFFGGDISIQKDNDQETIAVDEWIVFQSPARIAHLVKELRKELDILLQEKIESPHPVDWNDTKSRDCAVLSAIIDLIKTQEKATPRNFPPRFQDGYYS
UniProt Q07955, whole entry: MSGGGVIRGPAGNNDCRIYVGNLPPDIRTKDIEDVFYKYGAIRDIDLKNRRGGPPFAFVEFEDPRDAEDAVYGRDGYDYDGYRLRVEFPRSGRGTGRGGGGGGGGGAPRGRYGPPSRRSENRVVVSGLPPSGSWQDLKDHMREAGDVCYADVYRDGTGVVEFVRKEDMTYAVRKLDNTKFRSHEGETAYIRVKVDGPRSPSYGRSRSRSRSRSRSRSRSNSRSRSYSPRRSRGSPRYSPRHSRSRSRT

Compound: Nc1ncnc2c1ncn2[C@@H]1O[C@H](COP(=O)(O)OP(=O)(O)OP(=O)(O)O)[C@@H](O)[C@H]1O [adenosine triphosphate]
Test: NP40-soluble protein abundance relative to vehicle (solubility fold change) (ratio); higher = more soluble protein in presence of ATP
Method in brief: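 Each value is a fold change relative to the detergent-processed vehicle, calculated per replicate from vsn-normalised intensities. Jurkat crude lysate received eight concentrations (0.1 to 10 mM) for 10 min at room temperature and 3 min at 37 °C, then was solubilised in 0.8% NP40 with benzonase (60 min, 4 °C). The ultracentrifuged supernatant was TMT-labelled and run by LC-MS/MS in three independent experiments.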

Row | Target | NP40-soluble protein abundance (concentration: 0.1mM) | NP40-soluble protein abundance (concentration: 0.5mM) | NP40-soluble protein abundance (concentration: 1mM) | NP40-soluble protein abundance (concentration: 2mM) | NP40-soluble protein abundance (concentration: 4mM) | NP40-soluble protein abundance (concentration: 6mM) | NP40-soluble protein abundance (concentration: 8mM) | NP40-soluble protein abundance (concentration: 10mM)
1 | K7EKW4 and related entries (UniProt Q96AB3) | 0.989 ± 0.03 | 0.94 ± 0.041 | – | – | – | – | – | –
2 | J3KPC5 and related entries (UniProt P47736) | 1 ± 0.045 | 0.967 ± 0.049 | – | – | – | – | – | –
3 | H0YN33 and related entries (UniProt Q9BW66) | 1.1 ± 0.13 | 1.32 ± 0.083 | – | – | – | – | – | –
4 | H0YNP8 and related entries (UniProt Q99081) | 0.983 ± 0.022 | 0.978 ± 0.012 | 0.923 ± 0.056 | 0.935 ± 0.039 | 0.915 ± 0.041 | 0.938 ± 0.027 | 0.916 ± 0.018 | 0.921 ± 0.046
5 | H3BTR4 and related entries (UniProt Q96BT3) | 1.1 ± 0.16 | 1.06 ± 0.16 | 1.32 ± 0.023 | 1.41 ± 0.13 | 1.52 ± 0.21 | 1.72 ± 0.23 | 1.68 ± 0.17 | 1.87 ± 0.17
6 | I3L0L6 and related entries (UniProt Q9H6Y7) | 0.905 ± 0.026 | 0.911 ± 0.09 | 0.901 ± 0.033 | 0.93 ± 0.016 | 0.896 ± 0.051 | 0.962 ± 0.064 | 0.921 ± 0.066 | 0.864 ± 0.065
7 | H0YM92 and related entries (UniProt P01130) | 0.985 ± 0.017 | 0.987 ± 0.015 | 0.962 ± 0.026 | 0.977 ± 0.016 | 0.981 ± 0.023 | 0.966 ± 0.029 | 0.9771 ± 0.0072 | 0.987 ± 0.016
8 | H3BPD5 and related entries (UniProt P78549) | 0.979 ± 0.11 | 1.01 ± 0.08 | 1.12 ± 0.16 | 1.2 ± 0.029 | 1.3 ± 0.1 | 1.51 ± 0.2 | 1.72 ± 0.19 | 1.89 ± 0.12
9 | G5E9V5 and related entries (UniProt P82650) | 0.952 ± 0.071 | 1.01 ± 0.076 | 1.01 ± 0.046 | 0.938 ± 0.079 | 0.892 ± 0.083 | 0.907 ± 0.18 | 0.88 ± 0.11 | 0.867 ± 0.1
10 | J3KPS0 and related entries (UniProt Q9NXW2) | 0.997 ± 0.075 | 0.964 ± 0.098 | 0.902 ± 0.035 | 0.898 ± 0.056 | 0.867 ± 0.058 | 0.846 ± 0.12 | 0.845 ± 0.11 | 0.833 ± 0.1
11 | J3QL71 and related entries (UniProt Q96FV2) | 1.02 ± 0.032 | 0.9969 ± 0.0083 | 0.96 ± 0.029 | 0.97 ± 0.011 | 0.98 ± 0.025 | 0.944 ± 0.019 | 0.959 ± 0.032 | 0.984 ± 0.015
12 | H7C0H2 and related entries (UniProt Q96EV2) | 1 ± 0.028 | 0.968 ± 0.026 | 0.963 ± 0.093 | 0.942 ± 0.056 | 0.956 ± 0.086 | 0.982 ± 0.075 | 0.958 ± 0.067 | 0.951 ± 0.059
13 | G8JLQ3 and related entries (UniProt P78537) | 0.863 ± 0.2 | 0.829 ± 0.18 | 0.965 ± 0.12 | 0.88 ± 0.076 | 0.834 ± 0.1 | 0.861 ± 0.12 | 0.816 ± 0.032 | 0.702 ± 0.15
14 | K7EK70 and related entries (UniProt Q49A26) | 1.06 ± 0.068 | 1.11 ± 0.056 | 1.18 ± 0.095 | 1.25 ± 0.1 | 1.38 ± 0.1 | 1.45 ± 0.083 | 1.57 ± 0.16 | 1.76 ± 0.081
15 | J3KNW7 and related entries (UniProt Q9Y592) | 1.03 ± 0.1 | 1.02 ± 0.064 | 1.06 ± 0.072 | 0.9299 ± 0.0068 | 1.02 ± 0.032 | 1.04 ± 0.028 | 1.07 ± 0.062 | 0.993 ± 0.077
16 | H7C5F5 and related entries (UniProt Q9H2U1) | 0.995 ± 0.081 | 1 ± 0.11 | 0.963 ± 0.068 | 0.979 ± 0.08 | 0.987 ± 0.073 | 1.01 ± 0.1 | 1.03 ± 0.088 | 1.02 ± 0.1
17 | K7EIY6 and related entries (UniProt Q9BV68) | 0.927 ± 0.13 | 0.896 ± 0.096 | 1 ± 0.15 | 0.967 ± 0.095 | 0.991 ± 0.11 | 1 ± 0.1 | 0.969 ± 0.034 | 0.92 ± 0.11
18 | J3KTL2 and related entries (UniProt Q07955) | 0.997 ± 0.077 | 1.26 ± 0.055 | 1.41 ± 0.16 | 1.53 ± 0.14 | 1.7 ± 0.11 | 1.93 ± 0.19 | 1.89 ± 0.097 | 1.98 ± 0.093

Nos. 8–9, reprinted for reference:
Row | Target | NP40-soluble protein abundance (concentration: 0.1mM) | NP40-soluble protein abundance (concentration: 0.5mM) | NP40-soluble protein abundance (concentration: 1mM) | NP40-soluble protein abundance (concentration: 2mM) | NP40-soluble protein abundance (concentration: 4mM) | NP40-soluble protein abundance (concentration: 6mM) | NP40-soluble protein abundance (concentration: 8mM) | NP40-soluble protein abundance (concentration: 10mM)
8 | H3BPD5 and related entries (UniProt P78549) | 0.979 ± 0.11 | 1.01 ± 0.08 | 1.12 ± 0.16 | 1.2 ± 0.029 | 1.3 ± 0.1 | 1.51 ± 0.2 | 1.72 ± 0.19 | 1.89 ± 0.12
9 | G5E9V5 and related entries (UniProt P82650) | 0.952 ± 0.071 | 1.01 ± 0.076 | 1.01 ± 0.046 | 0.938 ± 0.079 | 0.892 ± 0.083 | 0.907 ± 0.18 | 0.88 ± 0.11 | 0.867 ± 0.1
